Data reported in the supplement of paper PMC10735217.
Some of the results follow. This data set is noisy: repeats of one test often differ as much as different tests do.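 In a drug-repurposing library screen, luminescence reads luciferase driven by eight TEAD-binding elements, stably integrated into human kidney-derived cells. Compounds scoring over five robust Z scores above the plate mean are called hits.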

Test system: HEK293A TEAD-LUC reporter
Experiment: TEAD-luciferase reporter activity (YAP activation), robust Z score vs plate; higher = stronger YAP/TEAD activation
Conditions: 24 h

Row | Structure (SMILES) | TEAD-luciferase reporter activity (compound concentration: 200 nM) | TEAD-luciferase reporter activity (compound concentration: 10 uM) | TEAD-luciferase reporter activity (compound concentration: 2 uM)
1 | C/C=C1\NC(=O)[C@H]2CSSCC/C=C/[C@H](CC(=O)N[C@H](C(C)C)C(=O)N2)OC(=O)[C@H](C(C)C)NC1=O [Romidepsin (FK228 ,depsipeptide)] | active: 30.8 | active: 33.3 | –
2 | C/C=C1\NC(=O)[C@H]2CSSCC/C=C/[C@H](CC(=O)N[C@H](C(C)C)C(=O)N2)OC(=O)[C@H](C(C)C)NC1=O [romidepsin] | – | – | active: 12.3
3 | Clc1ccc2c(c1)C1=NCCN1c1c(-c3noc(C4CC4)n3)ncn1-2 | inactive: -2.04 | inactive: 4.27 | inactive: -1.27
4 | C/C=C/C(=O)N(CC)c1ccccc1C | – | – | inactive: 0.805
5 | C/C=C/C(=O)N(CC)c1ccccc1C [N-Ethyl-o-crotonotoluidide483-63-6] | inactive: 0.401 | inactive: -2.31 | –
6 | COc1ccc2c(c1)c(CC(=O)SCc1cccnc1)c(C)n2C(=O)c1ccc(Cl)cc1 [pimetacin] | inactive: -0.718 | inactive: -0.783 | inactive: -0.948
7 | C[C@@H]1C[C@H]2[C@@H]3C[C@H](F)C4=CC(=O)C(Cl)=C[C@]4(C)[C@@]3(F)[C@@H](O)C[C@]2(C)[C@@]1(O)C(=O)CO | inactive: -0.785 | inactive: -0.0606 | –
8 | C[C@@H]1C[C@H]2[C@@H]3C[C@H](F)C4=CC(=O)C(Cl)=C[C@]4(C)[C@@]3(F)[C@@H](O)C[C@]2(C)[C@@]1(O)C(=O)CO [halometasone] | – | – | inactive: 1.23
9 | COc1ccc(/C=C/C(=O)NC[C@@H]2CN(c3ccc(N4CCOCC4)c(F)c3)C(=O)O2)cc1 | inactive: 0.311 | inactive: -1.05 | inactive: -0.653
10 | CCCCCCCCCC(=O)O [Capric acid] | inactive: -0.209 | inactive: -0.269 | inactive: 0.694
11 | CN(C)CCCNCC1CCCCC1 | inactive: 0.651 | inactive: -0.84 | inactive: -1.21
12 | O=C(NCCCl)Sc1ncnc2[nH]cnc12 | inactive: -0.588 | inactive: -0.649 | –
13 | O=C(NCCCl)Sc1ncnc2[nH]cnc12 [cloturin] | – | – | inactive: 1.37
14 | Cc1cc2c(cc1C(F)(F)F)N(C(=O)Nc1ccc(OCc3ccccn3)nc1)CC2 | inactive: 0.488 | inactive: 1.65 | inactive: 0.744
15 | CC1CS(=O)(=O)CCN1/N=C/c1ccc([N+](=O)[O-])o1 (centres undefined) [Nifurtimox] | inactive: -1.71 | inactive: -1.08 | –
16 | CC1CS(=O)(=O)CCN1/N=C/c1ccc([N+](=O)[O-])o1 (centres undefined) [nifurtimox] | – | – | inactive: -1.48
17 | CC[C@@H](Cc1ccc(OC)c(C(=O)NCc2ccc(Oc3ccc(F)cc3)cc2)c1)C(=O)O | inactive: -0.755 | inactive: -0.0687 | inactive: -0.666
18 | COc1ccc(-c2cc3cc(OC(C)=O)ccc3n2Cc2ccccc2)cc1 | inactive: -1.43 | inactive: 0.973 | inactive: -0.405
19 | Fc1ccc(-c2c3cccc(C(F)(F)F)c3nn2Cc2ccc(F)cc2Cl)cc1 | inactive: -1.62 | inactive: 1.54 | inactive: 0.315
20 | CC(C(=O)O)c1ccc(C(=O)c2cccs2)cc1 (centres undefined) [suprofen, Cusi] | inactive: -0.399 | inactive: 0.228 | active: 5.44
21 | C[C@@H]1CN(C(=O)[C@@H]2CN(C(C)(C)C)C[C@H]2c2ccc(F)cc2F)C[C@H](C)[C@@]1(O)c1ccccc1 | inactive: -0.862 | inactive: 0.581 | inactive: 0.296
22 | O=C(CN(CCC1CCCC1)C(=O)N1CCC[C@H]1C(=O)Nc1nccs1)NO | inactive: -1.37 | inactive: -0.267 | inactive: 0.0842
23 | CCc1ccc(Nc2c(F)c(F)cc(F)c2F)c(CC(=O)O)c1 [Robenacoxib] | inactive: -0.449 | inactive: 1.71 | inactive: 2.22
24 | CNC(=O)[C@H](C/C=C/c1ccc(N(C)c2ncccn2)cc1)NC(=O)c1ccccc1Cl | inactive: -1.49 | inactive: 0.229 | inactive: -0.425
25 | COc1cccc(CN2CCCC23Cc2ccccc2CNC3=O)c1 (centres undefined) | inactive: 0.163 | inactive: -0.258 | –
26 | CC(C)[C@H](O)C(=O)N[C@@H](C)C(=O)NC1C(=O)N(C)c2ccccc2-c2ccccc21 (some centres undefined) | inactive: -0.985 | inactive: 0.372 | inactive: -1.17
27 | CC(C)[C@H](NC(=O)C(Cc1ccccc1)C[C@H](O)[C@H](Cc1ccccc1)NC(=O)OC(C)(C)C)C(=O)N[C@@H](Cc1ccccc1)C(=O)N1CCOCC1 (some centres undefined) | inactive: -1.26 | inactive: -0.751 | inactive: -0.846
28 | CC(C)n1c(/C=C/C(O)CC(O)CC(=O)O)c(-c2ccc(F)cc2)c2ccccc21 (centres undefined) [fluvastatin] | inactive: -1.3 | inactive: 0.162 | inactive: -0.908
29 | CO[C@@H]1[C@@H](OC(N)=O)[C@@H](O)[C@H](Oc2ccc3c(O)c(NC(=O)c4ccc(O)c(CC=C(C)C)c4)c(=O)oc3c2C)OC1(C)C [Novobiocin sodium] | inactive: -0.456 | inactive: -0.574 | inactive: -1.62
30 | CCCCCC(O)c1cccc(OCc2ccc3ccccc3n2)c1 (centres undefined) | inactive: 0.0477 | inactive: 1.12 | inactive: -0.585

2 entries picked at random from those above:
Row | Structure (SMILES) | TEAD-luciferase reporter activity (compound concentration: 200 nM) | TEAD-luciferase reporter activity (compound concentration: 10 uM) | TEAD-luciferase reporter activity (compound concentration: 2 uM)
12 | O=C(NCCCl)Sc1ncnc2[nH]cnc12 | inactive: -0.588 | inactive: -0.649 | –
1 | C/C=C1\NC(=O)[C@H]2CSSCC/C=C/[C@H](CC(=O)N[C@H](C(C)C)C(=O)N2)OC(=O)[C@H](C(C)C)NC1=O [Romidepsin (FK228 ,depsipeptide)] | active: 30.8 | active: 33.3 | –
